Laboratory results as given in US20240009212A1, “PHOSPHAPLATIN COMPOUNDS AS THERAPEUTIC AGENTS SELECTIVELY TARGETING HIGHLY GLYCOLYTIC TUMOR CELLS AND METHODS THEREOF” (Promontory Therapeutics Inc., priority 2020, published 2024).
At least one structure is not confirmed: it was looked up by name or label, or the drawing left a doubt.

What was measured:
L929 and dt^L929 cells [1] = assay: MTT relative cell growth, OXPHOS-competent cells; format: cell-based, mouse; conditions: dt^L929 cybrid cells, 72 h
Experimental: (§1) Cell Culture and Generation of Cybrids Mouse fibroblast cell lines L929 and L929-derived (L929dt) were routinely cultured in high glucose DMEM medium with GlutaMAX (Life Technologies, Paisley, UK) supplemented with 10% of fetal calf serum (FCS), penicillin (1000 U/ml) and streptomycin (10 mg/ml) (PanBiotech, Aidenbach, Germany) at 37° C. and 5% CO2 using standard procedures. The transmitochondrial cell lines L929^dt and dt^L929 were obtained as previously described (Schmidt, W., et al. (1993) 53:799-805) and cultured with the identical medium used with the parental cells. For L929-ρ^0 cells, complete DMEM medium was also supplemented with 100 pyruvate (100 μg/ml) and uridine (50 μg/ml).
Relative cell growth was measured using the Mossman's method. 3×10^4 cells were seeded per well in a 96-well flat-bottomed plate and incubated with increasing concentrations of PT-112 or cisplatin (2, 6, and 10 μM) for 24-72 h at 37° C. […] During the incubation time, viable cells reduce MTT solution in insoluble purple formazan crystals, solubilized afterwards with isopropanol and 0.05 M HCl mixture and the absorbance was measured in a microplate reader (Dynatec, Pina de Ebro, Spain).
The sensitivity of L929, L929dt and cybrid cells to PT-112 was compared. […] The ability of both drugs to inhibit cell growth was assessed by the MTT reduction method. […]

L929-ρ^0 cells = assay: MTT relative cell growth, rho0 cells; format: cell-based, mouse; conditions: 2, 6 and 10 μM, 24-72 h
Experimental: as §1
Relative cell growth was measured using the Mossman's method. 3×10^4 cells were seeded per well in a 96-well flat-bottomed plate and incubated with increasing concentrations of PT-112 or cisplatin (2, 6, and 10 μM) for 24-72 h at 37° C. Then, 10 μl of a 5 mg/ml MTT dye solution was added per well and incubated for 3 hours. During the incubation time, viable cells reduce MTT solution in insoluble purple formazan crystals, solubilized afterwards with isopropanol and 0.05 M HCl mixture and the absorbance was measured in a microplate reader (Dynatec, Pina de Ebro, Spain). […]

[2] = test system: L929, L929dt and cybrids cells; assay: Cytotoxicity, annexin-V-FITC/7-AAD flow cytometry; format: cell-based, mouse; conditions: 10 μM, 24, 48 or 72 h
Experimental: Cytotoxicity assays were carried-out as follows: 100 μl aliquots of 3×10^4 cells were seeded per well in 96-well plate and 10 μM of PT-112 or cisplatin was added and incubated for 24-72 h at 37° C. Cell death was analyzed using a FACScalibur flow cytometer (BD Biosciences) after incubation with Annexin-V-FITC and/or 7-AAD (BD Biosciences, Madrid) in annexin binding buffer (140 mM NaCl, 2.5 mM CaCl2), 10 mM HEPES/NaOH, pH 7.4) for 10 minutes.
To test cell death induction by PT-112 and cisplatin, the parental cells L929, L929dt and cybrids cells were incubated with 10 μM of PT-112 or cisplatin for 24, 48 or 72 h and, at the end of the incubations, simultaneously stained with annexin-V-FITC and 7-AAD and analyzed by flow cytometry. […] The results are shown as mean±SD of at least 2 independent experiments made in duplicate. […] On the contrary, in cells treated with PT-112, this population is not observed at any time point in sensitive L929dt and L929^dt cells, and a population double positive for both markers is at short times of exposure, increasing with time (FIG. 2B, bar sections colored in white). Finally, at longer times, a population positive for 7-AAD and negative for annexin-V staining appears for both cell lines, typical of necrotic cell death (FIG. 2B, sections colored in grey).

L929dt and L929^dt cells [3] = assay: Mitochondrial membrane potential (DiOC6), glycolytic cells; format: cell-based, mouse; conditions: 10 μM PT-112, sensitive glycolytic cells, up to 72 h
L929 and dt^L929 cells [4] = assay: Mitochondrial membrane potential (DiOC6), OXPHOS-competent cells; format: cell-based, mouse; conditions: 10 μM PT-112, 72 h incubation
caspase-3 = assay: Caspase-3 activation, anti-cleaved caspase-3 flow cytometry; format: cell-based, mouse; conditions: 10 μM, 24-72 h, glycolytic cells sensitive to PT-112
[5] = test system: LNCap-C4 Prostate Cancer Cell Line; assay: Mitochondrial membrane depolarization by flow cytometry; format: cell-based
[6] = test system: L929, L929dt, L929^dt and dt^L929 cells; assay: Autophagosome formation (Cyto-ID, flow cytometry); format: cell-based, mouse
L929 and dt^L929 cells [7] = assay: Western blot of p62 and LC3BI/II, OXPHOS-competent cells; format: cell-based, mouse; conditions: PT-112 treatment
L929dt and L929^dt cells [8] = assay: Western blot of p62 and LC3BI/II, glycolytic cells; format: cell-based, mouse; conditions: PT-112 treatment
Rab5 [9] = assay: Rab5 immunoblot, OXPHOS-competent cells; format: cell-based, mouse; conditions: 10 μM PT-112, L929 and dt^L929 cells, already at 24 h
Rab5 [10] = assay: Rab5 immunoblot, sensitive glycolytic cells; format: cell-based, mouse; conditions: 10 μM PT-112, sensitive glycolytic cells, times longer than 24 h
HIF-1α = HIF-1α expression, Western blot; format: cell-based, mouse; conditions: 10 μM PT-112, 72 h, all four cell lines
[11] = test system: L929 family of cell lines; assay: Ubiquinone (Coenzyme Q10) amount in cells; format: cell-based, mouse
HDJ-2, Rab5 and Rab7 = assay: Prenylation state of HDJ-2, Rab5 and Rab7; format: cell-based; conditions: data not shown
DNA = conditions: background statement; cited from earlier work

O=P1(O)OP(=O)(O)[O][Pt]2([NH][C@@H]3CCCC[C@H]3[NH]2)[O]1 (stereo partly drawn) [PT-112, (R,R)-1,2-cyclohexanediamine-(pyrophosphato)platinum(II)]
cell growth (L929 and dt^L929 cells [1]): normal growth was recovered
cell growth (L929-ρ^0 cells): scarcely affect their growth rate
cell death induction [2]: cytotoxic only on highly glycolytic cells
mitochondrial membrane potential (ΔΨm) (L929dt and L929^dt cells [3]): increased
mitochondrial membrane potential (ΔΨm) (L929 and dt^L929 cells [4]): did not suffer any change
levels of active caspase-3 (caspase-3): clearly increased in a time-dependent manner
mitochondrial membrane depolarization [5]: induces this concurrently with the mtROS accumulation
autophagosome formation ([6]; 10 μM PT-112, 48 h, all cell lines): clearly induces autophagosome formation
p62 levels (L929 and dt^L929 cells [7]): gradual accumulation of p62
LC3BI levels (L929dt and L929^dt cells [8]): rapid reduction in LC3BI levels
p62 levels (L929dt and L929^dt cells [8]): no significant changes
Rab5 expression (Rab5 [9]): dramatic increase in the expression
Rab5 expression (Rab5 [10]): net reduction in the expression of Rab5
HIF-1α expression levels (HIF-1α): did not substantially affect
amount of ubiquinone (Coenzyme Q10) [11]: substantially reduced
prenylation state (HDJ-2, Rab5 and Rab7): no clear effects on prenylation were observed
DNA binding (DNA): lacks major DNA binding

CO[C@H]1C[C@@H]2CC[C@@H](C)[C@@](O)(O2)C(=O)C(=O)N2CCCC[C@H]2C(=O)O[C@H]([C@H](C)C[C@@H]2CC[C@@H](O)[C@H](OC)C2)CC(=O)[C@H](C)/C=C(\C)[C@@H](O)[C@@H](OC)C(=O)[C@H](C)C[C@H](C)/C=C/C=C/C=C/1C [rapamycin, reference compound]
autophagy induction (positive control) ([6]; 1 μM rapamycin, glycolytic versus L929 and dt^L929 cells): glycolytic cells were more sensitive to autophagy induction by rapamycin
